These are yes or no findings as the source states them, for the method shown. Binding seen in cells or lysates may run through a third protein. Here binding means that the protein was enriched with, or labelled near, the bait; the list need not be complete. Sequences can lack the tags named with a protein.
Target: T1, MYC-tagged ZFC3H1 N-terminal variant Z1^1-209(WT) (human) (UniProt O60293)
T1 sequence: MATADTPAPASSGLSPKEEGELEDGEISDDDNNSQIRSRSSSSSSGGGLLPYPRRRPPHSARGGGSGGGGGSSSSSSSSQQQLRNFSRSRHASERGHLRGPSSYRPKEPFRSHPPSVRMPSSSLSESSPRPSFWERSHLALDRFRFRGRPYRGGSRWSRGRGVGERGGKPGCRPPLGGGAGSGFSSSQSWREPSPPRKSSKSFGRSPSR
Assay: affinity purification with mass spectrometry

B1: ARS2 (endogenous) (protein, UniProt Q9BXP5 1-876)
chain: MGDSDDEYDRRRRDKFRRERSDYDRSRERDERRRGDDWNDREWDRGRERRSRGEYRDYDRNRRERFSPPRHELSPPQKRMRRDWDEHSSDPYHSGYEMPYAGGGGGPTYGPPQPWGHPDVHIMQHHVLPIQARLGSIAEIDLGVPPPVMKTFKEFLLSLDDSVDETEAVKRYNDYKLDFRRQQMQDFFLAHKDEEWFRSKYHPDEVGKRRQEARGALQNRLRVFLSLMETGWFDNLLLDIDKADAIVKMLDAAVIKMEGGTENDLRILEQEEEEEQAGKPGEPSKKEEGRAGAGLGDGERKTNDKDEKKEDGKQAENDSSNDDKTKKSEGDGDKEEKKEDSEKEAKKSSKKRNRKHSGDDSFDEGSVSESESESESGQAEEEKEEAEEALKEKEKPKEEEWEKPKDAAGLECKPRPLHKTCSLFMRNIAPNISRAEIISLCKRYPGFMRVALSEPQPERRFFRRGWVTFDRSVNIKEICWNLQNIRLRECELSPGVNRDLTRRVRNINGITQHKQIVRNDIKLAAKLIHTLDDRTQLWASEPGTPPLPTSLPSQNPILKNITDYLIEEVSAEEEELLGSSGGAPPEEPPKEGNPAEINVERDEKLIKVLDKLLLYLRIVHSLDYYNTCEYPNEDEMPNRCGIIHVRGPMPPNRISHGEVLEWQKTFEEKLTPLLSVRESLSEEEAQKMGRKDPEQEVEKFVTSNTQELGKDKWLCPLSGKKFKGPEFVRKHIFNKHAEKIEEVKKEVAFFNNFLTDAKRPALPEIKPAQPPGPAQILPPGLTPGLPYPHQTPQGLMPYGQPRPPILGYGAGAVRPAVPTGGPPYPHAPYGAGRGNYDAFRGQGGYPGKPRNRMVRGDPRAIVEYRDLDAPDDVDFF
For B1, the binding was “binds”.

Source: publication doi:10.1101/2023.05.09.539743 (bioRxiv, 2023)
